Values quoted from earlier work, collected in patent US6172104A, “Dicationic dibenzofuran and dibenzothiophene compounds and methods of use thereof” (priority 1999, dated 2001).
At least one compound was matched to its structure with a doubt left.

System: DNA minor groove
Details: previous studies, Tanious et al. 1997; cited from earlier work

c1cc2[nH]c3ccc(C4=NCCN4)cc3c2cc1C1=NCCN1 [3,6-di(2-imidazolinyl)carbazole]
DNA minor groove binding mode (in words): bound in the minor groove via hydrogen bonds from the two imidazoline groups
